# Measurements as given in the supplement of paper PMC12823440, “Inhibitors supercharge kinase turnover through native proteolytic circuits” (Nature, 2025).
# Protein sequences, listed by entry. Tags and fused reporters are not part of them. Lines headed by an entry give the natural chain unless they say otherwise; changes in a name come on top.
# UniProt Q15208: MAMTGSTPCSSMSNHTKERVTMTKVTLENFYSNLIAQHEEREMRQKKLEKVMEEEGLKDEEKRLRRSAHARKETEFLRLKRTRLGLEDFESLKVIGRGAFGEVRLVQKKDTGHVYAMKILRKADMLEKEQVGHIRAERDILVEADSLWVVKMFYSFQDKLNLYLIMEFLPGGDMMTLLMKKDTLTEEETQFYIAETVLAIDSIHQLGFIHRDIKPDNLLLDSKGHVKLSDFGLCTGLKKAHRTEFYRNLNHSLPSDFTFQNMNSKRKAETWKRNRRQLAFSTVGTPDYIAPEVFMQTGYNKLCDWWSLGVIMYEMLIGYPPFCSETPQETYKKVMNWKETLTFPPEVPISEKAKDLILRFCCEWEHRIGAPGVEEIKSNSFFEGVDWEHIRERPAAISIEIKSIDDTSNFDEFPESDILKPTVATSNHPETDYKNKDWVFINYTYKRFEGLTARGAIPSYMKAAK
# UniProt P07947, whole entry, looked up: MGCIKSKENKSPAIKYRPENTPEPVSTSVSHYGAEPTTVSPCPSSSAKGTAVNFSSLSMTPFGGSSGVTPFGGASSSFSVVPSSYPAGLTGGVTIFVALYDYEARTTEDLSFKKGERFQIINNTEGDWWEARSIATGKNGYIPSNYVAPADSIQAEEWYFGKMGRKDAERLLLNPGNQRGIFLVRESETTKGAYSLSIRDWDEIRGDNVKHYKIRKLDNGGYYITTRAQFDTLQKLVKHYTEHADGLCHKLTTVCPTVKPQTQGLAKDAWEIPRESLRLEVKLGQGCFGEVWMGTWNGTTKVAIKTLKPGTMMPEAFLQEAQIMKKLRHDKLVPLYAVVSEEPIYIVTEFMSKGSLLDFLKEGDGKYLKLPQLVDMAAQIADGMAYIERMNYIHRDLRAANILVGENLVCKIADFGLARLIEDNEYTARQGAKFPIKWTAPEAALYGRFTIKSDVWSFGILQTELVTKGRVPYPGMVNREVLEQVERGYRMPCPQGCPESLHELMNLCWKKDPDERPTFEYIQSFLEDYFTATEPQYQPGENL
# UniProt Q9UM73: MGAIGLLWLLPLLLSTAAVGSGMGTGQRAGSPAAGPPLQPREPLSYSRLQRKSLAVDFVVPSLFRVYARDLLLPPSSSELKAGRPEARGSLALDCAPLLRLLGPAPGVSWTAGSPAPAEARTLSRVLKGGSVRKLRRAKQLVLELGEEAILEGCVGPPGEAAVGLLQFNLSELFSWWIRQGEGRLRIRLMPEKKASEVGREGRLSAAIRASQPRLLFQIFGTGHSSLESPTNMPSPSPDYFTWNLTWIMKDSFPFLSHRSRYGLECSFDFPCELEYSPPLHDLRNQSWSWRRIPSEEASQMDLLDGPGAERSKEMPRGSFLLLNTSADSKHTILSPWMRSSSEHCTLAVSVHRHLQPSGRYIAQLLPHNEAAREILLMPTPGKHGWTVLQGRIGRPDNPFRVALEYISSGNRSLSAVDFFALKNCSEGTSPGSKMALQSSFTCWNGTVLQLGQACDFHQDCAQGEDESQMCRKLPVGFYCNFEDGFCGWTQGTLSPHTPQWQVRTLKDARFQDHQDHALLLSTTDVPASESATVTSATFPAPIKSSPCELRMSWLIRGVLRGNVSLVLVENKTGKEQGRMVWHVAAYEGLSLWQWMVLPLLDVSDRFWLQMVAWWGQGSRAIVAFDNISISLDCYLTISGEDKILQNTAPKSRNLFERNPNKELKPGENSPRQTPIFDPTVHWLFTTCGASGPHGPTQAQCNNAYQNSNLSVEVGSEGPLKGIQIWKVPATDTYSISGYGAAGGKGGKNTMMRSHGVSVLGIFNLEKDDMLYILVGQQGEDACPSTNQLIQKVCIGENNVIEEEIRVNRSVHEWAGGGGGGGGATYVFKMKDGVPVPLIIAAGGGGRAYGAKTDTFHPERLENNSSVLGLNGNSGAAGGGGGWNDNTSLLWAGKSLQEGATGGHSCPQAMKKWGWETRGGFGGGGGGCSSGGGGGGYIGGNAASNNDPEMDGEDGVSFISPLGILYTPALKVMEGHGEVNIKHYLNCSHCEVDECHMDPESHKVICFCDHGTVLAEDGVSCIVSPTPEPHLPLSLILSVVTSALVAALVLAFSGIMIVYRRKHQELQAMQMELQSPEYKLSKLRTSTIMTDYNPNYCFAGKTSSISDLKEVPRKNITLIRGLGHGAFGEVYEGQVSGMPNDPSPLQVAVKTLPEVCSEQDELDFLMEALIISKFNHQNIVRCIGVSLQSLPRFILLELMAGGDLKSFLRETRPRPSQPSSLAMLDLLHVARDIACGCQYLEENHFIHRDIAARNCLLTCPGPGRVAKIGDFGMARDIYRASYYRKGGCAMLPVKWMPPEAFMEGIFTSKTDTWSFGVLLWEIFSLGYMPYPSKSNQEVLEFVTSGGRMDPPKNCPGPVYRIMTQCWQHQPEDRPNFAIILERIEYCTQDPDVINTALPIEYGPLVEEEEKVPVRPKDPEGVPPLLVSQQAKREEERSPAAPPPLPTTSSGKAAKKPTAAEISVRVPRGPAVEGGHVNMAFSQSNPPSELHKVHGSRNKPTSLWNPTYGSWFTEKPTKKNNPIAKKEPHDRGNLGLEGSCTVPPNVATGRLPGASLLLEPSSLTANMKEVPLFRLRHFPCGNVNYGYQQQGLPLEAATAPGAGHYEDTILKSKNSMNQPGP
# UniProt P10398: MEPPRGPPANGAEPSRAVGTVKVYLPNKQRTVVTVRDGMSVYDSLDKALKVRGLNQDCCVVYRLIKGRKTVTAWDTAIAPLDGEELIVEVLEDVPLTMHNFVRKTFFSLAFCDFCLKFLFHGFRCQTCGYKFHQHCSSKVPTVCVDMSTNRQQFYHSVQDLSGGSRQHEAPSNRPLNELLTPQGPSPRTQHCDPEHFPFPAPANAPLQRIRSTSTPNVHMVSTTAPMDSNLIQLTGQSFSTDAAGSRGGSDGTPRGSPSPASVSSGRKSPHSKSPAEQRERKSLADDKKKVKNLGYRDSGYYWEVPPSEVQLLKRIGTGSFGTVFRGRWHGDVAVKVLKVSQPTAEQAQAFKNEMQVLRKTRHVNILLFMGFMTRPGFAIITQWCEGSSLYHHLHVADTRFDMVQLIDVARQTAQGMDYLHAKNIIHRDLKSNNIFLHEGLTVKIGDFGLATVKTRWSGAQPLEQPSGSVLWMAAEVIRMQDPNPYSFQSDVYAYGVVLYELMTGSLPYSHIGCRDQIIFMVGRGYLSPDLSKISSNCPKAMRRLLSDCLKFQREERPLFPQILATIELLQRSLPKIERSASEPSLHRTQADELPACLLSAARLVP
# UniProt O14965: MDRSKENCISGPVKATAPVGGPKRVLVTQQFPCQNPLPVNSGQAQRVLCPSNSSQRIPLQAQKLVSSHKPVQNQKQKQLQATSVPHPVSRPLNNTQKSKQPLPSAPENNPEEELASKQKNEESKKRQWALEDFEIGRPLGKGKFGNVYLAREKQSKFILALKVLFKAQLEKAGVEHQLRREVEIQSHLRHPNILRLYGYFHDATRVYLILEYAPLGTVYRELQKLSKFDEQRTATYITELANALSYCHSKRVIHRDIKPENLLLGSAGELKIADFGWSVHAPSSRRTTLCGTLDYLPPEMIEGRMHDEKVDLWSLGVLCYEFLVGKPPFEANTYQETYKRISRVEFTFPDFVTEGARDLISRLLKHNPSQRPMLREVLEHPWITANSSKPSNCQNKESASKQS
# UniProt Q96GD4, whole entry: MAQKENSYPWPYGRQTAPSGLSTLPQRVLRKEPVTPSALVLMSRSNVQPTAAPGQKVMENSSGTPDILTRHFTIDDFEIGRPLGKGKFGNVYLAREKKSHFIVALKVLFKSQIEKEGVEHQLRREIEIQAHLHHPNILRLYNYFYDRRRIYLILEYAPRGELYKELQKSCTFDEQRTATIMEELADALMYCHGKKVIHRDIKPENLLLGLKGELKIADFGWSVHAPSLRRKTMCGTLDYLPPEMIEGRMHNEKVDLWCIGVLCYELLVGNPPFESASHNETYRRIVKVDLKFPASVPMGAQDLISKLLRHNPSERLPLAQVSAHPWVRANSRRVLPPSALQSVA
# UniProt Q9UQB9: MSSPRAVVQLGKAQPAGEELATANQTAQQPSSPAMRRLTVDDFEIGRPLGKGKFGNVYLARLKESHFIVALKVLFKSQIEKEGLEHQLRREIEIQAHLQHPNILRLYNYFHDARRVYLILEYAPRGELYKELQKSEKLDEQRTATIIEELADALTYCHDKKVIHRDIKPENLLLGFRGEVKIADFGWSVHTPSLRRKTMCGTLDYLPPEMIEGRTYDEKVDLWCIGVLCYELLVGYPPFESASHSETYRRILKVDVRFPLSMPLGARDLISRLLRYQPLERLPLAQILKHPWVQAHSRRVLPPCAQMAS
# UniProt P51813: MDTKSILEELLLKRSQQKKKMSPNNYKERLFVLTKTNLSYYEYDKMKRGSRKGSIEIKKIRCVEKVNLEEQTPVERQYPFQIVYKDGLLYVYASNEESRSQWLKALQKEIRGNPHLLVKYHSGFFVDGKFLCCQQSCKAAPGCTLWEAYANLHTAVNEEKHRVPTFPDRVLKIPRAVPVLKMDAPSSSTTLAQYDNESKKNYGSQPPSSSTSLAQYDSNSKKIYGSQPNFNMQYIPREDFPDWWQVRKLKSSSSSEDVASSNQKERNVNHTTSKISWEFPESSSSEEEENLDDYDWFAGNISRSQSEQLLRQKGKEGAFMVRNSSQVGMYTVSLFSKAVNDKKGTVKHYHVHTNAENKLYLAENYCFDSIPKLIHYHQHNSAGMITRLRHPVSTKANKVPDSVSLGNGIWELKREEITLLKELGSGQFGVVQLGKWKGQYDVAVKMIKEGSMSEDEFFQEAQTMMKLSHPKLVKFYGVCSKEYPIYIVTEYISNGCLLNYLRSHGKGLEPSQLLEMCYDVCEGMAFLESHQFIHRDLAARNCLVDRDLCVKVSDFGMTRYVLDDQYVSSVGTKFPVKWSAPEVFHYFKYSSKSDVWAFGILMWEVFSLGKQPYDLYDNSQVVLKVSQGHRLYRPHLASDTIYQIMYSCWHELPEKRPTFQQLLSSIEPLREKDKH
# UniProt P15056, whole entry, looked up: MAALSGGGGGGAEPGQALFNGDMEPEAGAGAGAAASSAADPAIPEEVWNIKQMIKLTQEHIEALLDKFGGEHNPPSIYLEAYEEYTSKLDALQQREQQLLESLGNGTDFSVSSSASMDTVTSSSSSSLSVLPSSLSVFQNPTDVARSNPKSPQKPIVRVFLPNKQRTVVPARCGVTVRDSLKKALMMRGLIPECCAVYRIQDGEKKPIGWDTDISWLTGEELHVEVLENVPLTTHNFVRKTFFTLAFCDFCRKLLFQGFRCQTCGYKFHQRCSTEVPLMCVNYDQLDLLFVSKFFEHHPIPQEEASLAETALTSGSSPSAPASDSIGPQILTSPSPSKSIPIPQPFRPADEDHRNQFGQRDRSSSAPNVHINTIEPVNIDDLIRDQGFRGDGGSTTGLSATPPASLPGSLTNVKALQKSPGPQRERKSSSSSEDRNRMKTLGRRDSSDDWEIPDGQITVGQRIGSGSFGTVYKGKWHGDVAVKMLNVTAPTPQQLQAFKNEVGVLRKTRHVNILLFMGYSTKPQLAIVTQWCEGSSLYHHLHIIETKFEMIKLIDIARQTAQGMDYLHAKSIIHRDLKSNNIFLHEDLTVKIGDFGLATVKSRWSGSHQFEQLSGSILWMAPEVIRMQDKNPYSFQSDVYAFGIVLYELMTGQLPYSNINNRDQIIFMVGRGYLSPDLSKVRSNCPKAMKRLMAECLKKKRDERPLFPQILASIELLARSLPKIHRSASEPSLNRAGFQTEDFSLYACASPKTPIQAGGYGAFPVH
# UniProt Q06187: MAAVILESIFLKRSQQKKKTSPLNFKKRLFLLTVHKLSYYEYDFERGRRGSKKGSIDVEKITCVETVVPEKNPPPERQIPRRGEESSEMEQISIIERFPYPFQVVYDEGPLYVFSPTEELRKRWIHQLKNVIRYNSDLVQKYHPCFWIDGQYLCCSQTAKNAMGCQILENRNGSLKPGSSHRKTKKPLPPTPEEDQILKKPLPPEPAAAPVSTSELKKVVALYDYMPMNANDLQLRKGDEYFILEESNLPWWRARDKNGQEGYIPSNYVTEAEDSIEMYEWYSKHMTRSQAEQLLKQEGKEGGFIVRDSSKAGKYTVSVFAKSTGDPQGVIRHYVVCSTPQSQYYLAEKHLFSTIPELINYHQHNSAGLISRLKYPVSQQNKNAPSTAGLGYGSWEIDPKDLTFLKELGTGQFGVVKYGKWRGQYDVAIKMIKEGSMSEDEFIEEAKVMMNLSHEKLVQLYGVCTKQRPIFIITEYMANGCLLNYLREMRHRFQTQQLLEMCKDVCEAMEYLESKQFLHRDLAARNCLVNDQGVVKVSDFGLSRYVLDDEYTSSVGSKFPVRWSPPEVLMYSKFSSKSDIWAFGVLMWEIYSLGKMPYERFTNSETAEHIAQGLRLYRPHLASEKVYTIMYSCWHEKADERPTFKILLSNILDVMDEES
# This is one part of the list. The calls rarely recur for the same compound in another form.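 Kinases were expressed as nanoluciferase fusions in K562 cells and luminescence was read every 4 h between 2 and 18 h as percent of control, DMSO set to 100% and a positive control to 0%. A time point counts as decreased when the signal drops significantly (2 sigma). The hit call is the authors' own, does not follow from the count of time points alone, and its rule is not shown.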
# Experiments:
# Conditions in all cases: K562; 2-18 h
# STK38 = STK38 (UniProt Q15208); experiment: kinase-Nluc reporter destabilization hit call (1 = scored as downregulated) (binary); higher = compound decreases kinase abundance
# SYK = SYK (UniProt P43405); experiment: as above
# TEC = TEC (UniProt P42680); experiment: as above
# TYK2 = TYK2 (UniProt P29597); experiment: as above
# ULK3 = ULK3 (UniProt Q6PHR2); experiment: as above
# YES1 = YES1 (UniProt P07947); experiment: as above
# ZAK = ZAK (UniProt Q9NYL2); experiment: as above
# ZAP70 = ZAP70 (UniProt P43403); experiment: as above
# ABL1 = ABL1 (UniProt P00519); experiment: number of time points (of 5) at which kinase-Nluc abundance scored as decreased, DMSO-normalised (count); higher = more persistent destabilization
# AKT1 = AKT1 (UniProt P31749); experiment: as above
# ALK = ALK (UniProt Q9UM73); experiment: as above
# ARAF = ARAF (UniProt P10398); experiment: as above
# AURKA = AURKA (UniProt O14965); experiment: as above
# AURKB = AURKB (UniProt Q96GD4); experiment: as above
# AURKC = AURKC (UniProt Q9UQB9); experiment: as above
# BLK = BLK (UniProt P51451); experiment: as above
# BMX = BMX (UniProt P51813); experiment: as above
# BRAF = BRAF (UniProt P15056); experiment: as above
# BRAF_V600E = experiment: as above
# BTK = BTK (UniProt Q06187); experiment: as above
Structure (SMILES),kinase-Nluc reporter destabilization hit call (STK38),kinase-Nluc reporter destabilization hit call (SYK),kinase-Nluc reporter destabilization hit call (TEC),kinase-Nluc reporter destabilization hit call (TYK2),kinase-Nluc reporter destabilization hit call (ULK3),kinase-Nluc reporter destabilization hit call (YES1),kinase-Nluc reporter destabilization hit call (ZAK),kinase-Nluc reporter destabilization hit call (ZAP70),number of time points (ABL1),number of time points (AKT1),number of time points (ALK),number of time points (ARAF),number of time points (AURKA),number of time points (AURKB),number of time points (AURKC),number of time points (BLK),number of time points (BMX),number of time points (BRAF),number of time points (BRAF_V600E),number of time points (BTK)
c1cncc(CN2CCC(n3ncc4c(N5CCOCC5)nc(-c5ccc6[nH]ccc6c5)nc43)CC2)c1 (10 µM),inactive: 0,inactive: 0,inactive: 0,inactive: 0,inactive: 0,inactive: 0,inactive: 0,inactive: 0,5,0,0,0,4,4,0,2,4,1,4,0
C[C@@H]1CCN(C(=O)CC#N)C[C@@H]1N(C)c1ncnc2[nH]ccc12 [Tofacitinib (citrate)] (10 µM),inactive: 0,–,inactive: 0,inactive: 0,inactive: 0,inactive: 0,inactive: 0,inactive: 0,0,0,0,0,0,0,0,–,0,0,0,–
CC#CC(=O)N1CC[C@@H](n2c(=O)n(-c3ccc(Oc4ccccc4)cc3)c3c(N)ncnc32)C1 [Tirabrutinib] (10 µM),inactive: 0,inactive: 0,inactive: 0,inactive: 0,inactive: 0,inactive: 0,inactive: 0,inactive: 0,0,0,0,0,0,0,0,0,–,0,0,0
Cc1[nH]c(/C=C2\C(=O)Nc3ccccc32)c(C)c1CCC(=O)O [(Z)-Orantinib] (10 µM),inactive: 0,inactive: 0,inactive: 0,inactive: 0,inactive: 0,inactive: 0,inactive: 0,inactive: 0,0,0,0,0,0,0,0,–,0,0,0,0
CC1=C(C(=O)O)N2C(=O)[C@@H](NC(=O)[C@H](N)C3=CCC=CC3)[C@H]2SC1 [Cephradine] (10 µM),inactive: 0,inactive: 0,inactive: 0,inactive: 0,inactive: 0,inactive: 0,inactive: 0,inactive: 0,0,0,0,0,0,0,0,0,0,0,0,0
O=C(N/N=C/c1coc2ccccc2c1=O)c1cccnc1 (10 µM),inactive: 0,inactive: 0,inactive: 0,inactive: 0,inactive: 0,inactive: 0,inactive: 0,inactive: 0,0,0,0,0,0,0,0,0,0,0,0,0
CCN1CCN(Cc2ccc(Nc3ncc(F)c(-c4cc(F)c5nc(C)n(C(C)C)c5c4)n3)nc2)CC1 [Abemaciclib] (2 µM),–,inactive: 0,inactive: 0,–,inactive: 0,inactive: 0,inactive: 0,inactive: 0,0,0,0,0,3,0,0,0,0,0,0,0
CCOc1ccc2cc(-c3nn(CC4CCN(C)CC4)c4ncnc(N)c34)ccc2n1 (10 µM),inactive: 0,inactive: 0,inactive: 0,inactive: 0,inactive: 0,inactive: 0,inactive: 0,inactive: 0,0,0,0,0,0,0,0,0,0,0,0,0
